Results reported in patent US20240199626A1, “COMPOUNDS WITH IMPROVED CARDIAC SAFETY FOR THE TREATMENT OF CANCER AND NEURODEGENERATIVE DISORDERS” (priority 2021, published 2024).

Tested on: K-562 cells
Assay: Cell viability / growth inhibition (AlamarBlue), K-562
Type: cell-based
Conditions: Homo sapiens, K562; Table 5; ± SD
Description: K562 and K562-T315I: The Leukemia cell lines K562 were purchased and maintained as recommended by ATCC (Manassas, VA, USA). Briefly, K562 cells were cultured in suspension in RPMI1640 (ThermoFisher Scientific, USA) supplemented with 10% fetal bovine serum and Pen/Strep/L-Glutamine. […] Briefly, one million K562 cells were seeded in 6-well plates and transfected with Lipofectamine 2000 and 1 μg of CRISPR/Cas9 vector (pSpCas9(BB)-2A-GFP) incorporating the guide sequence ([…]), and Lipofectamine RNAiMax and 4 μg of ssDNA donors (1ug of each donor, Supplementary Table 1) for each well of a 6-well plate.
The effects of the compounds on cell viability were evaluated using the AlamarBlue assay using the NCI60 methodology.^57 Cells were harvested and plated in 384-well plates (Greiner μClear) at a concentration of 1250 cells/well in 40 μL, and incubated for 24 h at 37° C. The next day, test compounds were added to the cells as a 2×40μL solution, and incubated for 48 h at 37° C.

IC50: 563 nM
Structure (SMILES): Cc1ccc(NC(=O)c2ccc(CN3CCN(C)CC3)cc2)cc1Nc1nccc(-c2cccnc2)n1 [Imatinib]
